Results are given in words; binding and its absence hold for the method and conditions named. In cells and extracts the contact can be indirect. Some results given as binding are weak or reduced against the parent protein; the word gives no strength.
Biological target: Glycogen Synthase Kinase 3β (GSK3β) (rat (endogenous in hippocampal neuronal cultures)) (UniProt P18266)
Test: co-IP; immunoprecipitation of endogenous GSK3β and of HDAC6 from hippocampal neurons; conditions not described

The chains behind the UniProt entries cited, without tags or fusion partners.
UniProt P18266: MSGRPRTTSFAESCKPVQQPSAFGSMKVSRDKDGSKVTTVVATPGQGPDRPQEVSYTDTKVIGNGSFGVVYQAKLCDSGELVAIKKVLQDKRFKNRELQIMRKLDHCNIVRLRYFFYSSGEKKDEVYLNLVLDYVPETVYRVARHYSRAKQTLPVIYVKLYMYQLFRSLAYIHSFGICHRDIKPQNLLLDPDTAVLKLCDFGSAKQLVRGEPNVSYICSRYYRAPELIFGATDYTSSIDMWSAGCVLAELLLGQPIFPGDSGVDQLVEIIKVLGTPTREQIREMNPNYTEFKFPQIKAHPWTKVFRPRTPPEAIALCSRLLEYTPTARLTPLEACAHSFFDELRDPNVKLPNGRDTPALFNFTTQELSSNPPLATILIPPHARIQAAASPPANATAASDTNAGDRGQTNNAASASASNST
UniProt A0A8I6GM68: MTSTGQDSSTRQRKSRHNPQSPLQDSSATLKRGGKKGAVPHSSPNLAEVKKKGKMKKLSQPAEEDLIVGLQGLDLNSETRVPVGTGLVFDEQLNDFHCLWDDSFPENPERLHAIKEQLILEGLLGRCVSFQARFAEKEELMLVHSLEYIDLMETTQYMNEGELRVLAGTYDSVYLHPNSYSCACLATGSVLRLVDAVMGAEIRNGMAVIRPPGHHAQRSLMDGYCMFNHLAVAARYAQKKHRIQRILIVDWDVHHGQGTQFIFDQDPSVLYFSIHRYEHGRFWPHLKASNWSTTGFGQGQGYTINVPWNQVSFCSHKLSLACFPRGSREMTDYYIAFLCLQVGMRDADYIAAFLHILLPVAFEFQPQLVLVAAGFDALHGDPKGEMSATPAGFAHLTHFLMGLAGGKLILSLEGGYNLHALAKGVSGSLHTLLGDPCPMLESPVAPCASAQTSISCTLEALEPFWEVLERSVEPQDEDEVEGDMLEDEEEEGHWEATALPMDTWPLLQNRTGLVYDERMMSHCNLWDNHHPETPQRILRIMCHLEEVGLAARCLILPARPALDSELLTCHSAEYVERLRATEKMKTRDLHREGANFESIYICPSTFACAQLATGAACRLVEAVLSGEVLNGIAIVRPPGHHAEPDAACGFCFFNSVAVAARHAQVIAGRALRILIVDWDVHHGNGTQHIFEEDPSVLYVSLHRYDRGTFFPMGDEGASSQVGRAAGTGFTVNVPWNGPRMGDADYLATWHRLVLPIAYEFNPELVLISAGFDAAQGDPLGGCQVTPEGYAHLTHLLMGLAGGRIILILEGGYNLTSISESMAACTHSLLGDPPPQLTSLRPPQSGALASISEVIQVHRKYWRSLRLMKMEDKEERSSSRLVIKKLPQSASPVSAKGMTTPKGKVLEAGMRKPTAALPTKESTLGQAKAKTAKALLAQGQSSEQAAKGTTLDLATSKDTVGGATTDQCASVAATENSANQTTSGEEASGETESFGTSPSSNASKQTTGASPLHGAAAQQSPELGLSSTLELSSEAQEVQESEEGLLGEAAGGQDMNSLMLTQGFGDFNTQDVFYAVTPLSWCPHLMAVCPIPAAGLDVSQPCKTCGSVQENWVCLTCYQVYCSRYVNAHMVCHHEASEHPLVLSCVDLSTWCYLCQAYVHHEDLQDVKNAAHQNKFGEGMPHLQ

binding: binds
Substance: Histone deacetylase 6 (HDAC6) (from UniProt A0A8I6GM68 1-1183) (enzyme)

— paper PMC2877100
